The values below are quoted from earlier work in PMC9770967, “Native holdup (nHU) to measure binding affinities from cell extracts” (Science Advances, 2022).

To fix the notation:
B1: SNX2: component of the SNX-BAR complex (protein, UniProt O60749 1-519, looked up)
Sorting nexin-2: MAAEREPPPLGDGKPTDFEDLEDGEDLFTSTVSTLESSPSSPEPASLPAEDISANSNGPKPTEVVLDDDREDLFAEATEEVSLDSPEREPILSSEPSPAVTPVTPTTLIAPRIESKSMSAPVIFDRSREEIEEEANGDIFDIEIGVSDPEKVGDGMNAYMAYRVTTKTSLSMFSKSEFSVKRRFSDFLGLHSKLASKYLHVGYIVPPAPEKSIVGMTKVKVGKEDSSSTEFVEKRRAALERYLQRTVKHPTLLQDPDLRQFLESSELPRAVNTQALSGAGILRMVNKAADAVNKMTIKMNESDAWFEEKQQQFENLDQQLRKLHVSVEALVCHRKELSANTAAFAKSAAMLGNSEDHTALSRALSQLAEVEEKIDQLHQEQAFADFYMFSELLSDYIRLIAAVKGVFDHRMKCWQKWEDAQITLLKKREAEAKMMVANKPDKIQQAKNEIREWEAKVQQGERDFEQISKTIRKEVGRFEKERVKDFKTVIIKYLESLVQTQQQLIKYWEAFLPEAKAIA
B2: SNX5: component of the SNX-BAR complex (protein, UniProt Q9Y5X3 2-404, looked up)
Sorting nexin-5: AAVPELLQQQEEDRSKLRSVSVDLNVDPSLQIDIPDALSERDKVKFTVHTKTTLPTFQSPEFSVTRQHEDFVWLHDTLIETTDYAGLIIPPAPTKPDFDGPREKMQKLGEGEGSMTKEEFAKMKQELEAEYLAVFKKTVSSHEVFLQRLSSHPVLSKDRNFHVFLEYDQDLSVRRKNTKEMFGGFFKSVVKSADEVLFTGVKEVDDFFEQEKNFLINYYNRIKDSCVKADKMTRSHKNVADDYIHTAACLHSLALEEPTVIKKYLLKVAELFEKLRKVEGRVSSDEDLKLTELLRYYMLNIEAAKDLLYRRTKALIDYENSNKALDKARLKSKDVKLAEAHQQECCQKFEQLSESAKEELINFKRKRVAAFRKNLIEMSELEIKHARNNVSLLQSCIDLFKNN
B3: Strumpellin: component of the WASH complex (protein, UniProt Q12768 1-1159, looked up)
WASH complex subunit 5: MLDFLAENNLCGQAILRIVSCGNAIIAELLRLSEFIPAVFRLKDRADQQKYGDIIFDFSYFKGPELWESKLDAKPELQDLDEEFRENNIEIVTRFYLAFQSVHKYIVDLNRYLDDLNEGVYIQQTLETVLLNEDGKQLLCEALYLYGVMLLVIDQKIEGEVRERMLVSYYRYSAARSSADSNMDDICKLLRSTGYSSQPGAKRPSNYPESYFQRVPINESFISMVIGRLRSDDIYNQVSAYPLPEHRSTALANQAAMLYVILYFEPSILHTHQAKMREIVDKYFPDNWVISIYMGITVNLVDAWEPYKAAKTALNNTLDLSNVREQASRYATVSERVHAQVQQFLKEGYLREEMVLDNIPKLLNCLRDCNVAIRWLMLHTADSACDPNNKRLRQIKDQILTDSRYNPRILFQLLLDTAQFEFILKEMFKQMLSEKQTKWEHYKKEGSERMTELADVFSGVKPLTRVEKNENLQAWFREISKQILSLNYDDSTAAGRKTVQLIQALEEVQEFHQLESNLQVCQFLADTRKFLHQMIRTINIKEEVLITMQIVGDLSFAWQLIDSFTSIMQESIRVNPSMVTKLRATFLKLASALDLPLLRINQANSPDLLSVSQYYSGELVSYVRKVLQIIPESMFTSLLKIIKLQTHDIIEVPTRLDKDKLRDYAQLGPRYEVAKLTHAISIFTEGILMMKTTLVGIIKVDPKQLLEDGIRKELVKRVAFALHRGLIFNPRAKPSELMPKLKELGATMDGFHRSFEYIQDYVNIYGLKIWQEEVSRIINYNVEQECNNFLRTKIQDWQSMYQSTHIPIPKFTPVDESVTFIGRLCREILRITDPKMTCHIDQLNTWYDMKTHQEVTSSRLFSEIQTTLGTFGLNGLDRLLCFMIVKELQNFLSMFQKIILRDRTVQDTLKTLMNAVSPLKSIVANSNKIYFSAIAKTQKIWTAYLEAIMKVGQMQILRQQIANELNYSCRFDSKHLAAALENLNKALLADIEAHYQDPSLPYPKEDNTLLYEITAYLEAAGIHNPLNKIYITTKRLPYFPIVNFLFLIAQLPKLQYNKNLGMVCRKPTDPVDWPPLVLGLLTLLKQFHSRYTEQFLALIGQFICSTVEQCTSQKIPEIPADVVGALLFLEDYVRYTKLPRRVAEAHVPNFIFDEFRTVL
B4: SNX6: component of the SNX-BAR complex (protein, UniProt Q9UNH7 1-406, looked up)
Sorting nexin-6: MMEGLDDGPDFLSEEDRGLKAINVDLQSDAALQVDISDALSERDKVKFTVHTKSSLPNFKQNEFSVVRQHEEFIWLHDSFVENEDYAGYIIPPAPPRPDFDASREKLQKLGEGEGSMTKEEFTKMKQELEAEYLAIFKKTVAMHEVFLCRVAAHPILRRDLNFHVFLEYNQDLSVRGKNKKEKLEDFFKNMVKSADGVIVSGVKDVDDFFEHERTFLLEYHNRVKDASAKSDRMTRSHKSAADDYNRIGSSLYALGTQDSTDICKFFLKVSELFDKTRKIEARVSADEDLKLSDLLKYYLRESQAAKDLLYRRSRSLVDYENANKALDKARAKNKDVLQAETSQQLCCQKFEKISESAKQELIDFKTRRVAAFRKNLVELAELELKHAKGNLQLLQNCLAVLNGDT
B5: WASH2: component of the WASH complex (protein)
chain: MTPVRMQHSLAGQTYAVPLIQPDLRREEAVQQMADALQYLQKVSGDIFSRISQQVEQSRSQVQAIGEKVSLAQAKIEKIKGSKKAIKVFSSAKYPAPERLQEYGSIFTGAQDPGLQRRPRHRIQSKHRPLDERALQEKLKDFPVCVSTKPEPEDDAEEGLGGLPSNISSVSSLLLFNTTENLYKKYVFLDPLAGAVTKTHVMLGAETEEKLFDAPLSISKREQLEQQVPENYFYVPDLGQVPEIDVPSYLPDLPGIANDLMYIADLGPGIAPSAPGTIPELPTFHTEVAEPLKVDLQDGVLTPPPPPPPPPPAPEVLASAPPLPPSTAAPVGQGARQDDSSSSASPSVQGAPREVVDPSGGRATLLESIRQAGGIGKAKLRSMKERKLEKKKQKEQEQVRATSQGGHLMSDLFNKLVMRRKGISGKGPGAGEGPGGAFARVSDSIPPLPPPQQPQAEEDEDDWES

The data set relates to HEK293T cells. The conditions noted are these: estimated total protein concentration; cited from earlier work.
With B1, the “[Protein] (nM) in HEK293T” value is given as 984 nM. B2: the “[Protein] (nM) in HEK293T” value is recorded as 629 nM.

For B3, the “[Protein] (nM) in HEK293T” value is given as 87 nM.

With B4, the “[Protein] (nM) in HEK293T” value was 592 nM. With B5, the “[Protein] (nM) in HEK293T” value is on record as 20 nM.
